Test results published in patent US20240122912A1, “A NANOFORMULATION FOR GLIOMA TREATMENT AND PROCESS FOR ITS PREPARATION THEREOF” (COUNCIL OF SCIENTIFIC AND INDUSTRIAL RESEARCH, priority 2021, published 2024).

Test system: GL261 and U87 cells
Assay: MTT cytotoxicity assay in cancer cells
Type: cell-based, mouse; human

`O=C(CCCN1CCC(O)(c2ccc(Cl)cc2)CC1)c1ccc(F)cc1` [H8] showed an IC50 of 2000 to 2600 nM.
